Data source: PubChem BioAssay AID652243 (Drosophila RNAi Screening Center, 2013)

- Aim: 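Knock-downs that decrease or increase androgen receptor reporter signal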 (primary screen)
- Cell system: Drosophila S2R+ cells
- Reagents: long dsRNA against Drosophila genes
- Timing: 72 h (48 h, then 24 h hormone)
- Challenge: synthetic androgen R1881 at 10 nM for 24 h
- Measurement: 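Per-well raw luminescence of the androgen-driven firefly reporter and of the Renilla control, two replicates each, without normalisation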
- Scale: firefly reporter light: higher = more light from androgen-responsive reporter; Renilla control light: higher = more constitutive control signal (cell number, transfection)
- Call rule: 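Across duplicate plates, a knock-down whose log firefly/Renilla ratio shifted a set fold down or up from the GFP/LacZ control mean was a hit; the downward cut appears as both 1.5 and 3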
- Calls: active = hit: reporter lowered or raised; inactive = no hit
The deposit covers about 24,000 reagents; this is a random part of those that have a named target and a result. In the full data, 246 (1%) got an active call. 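Plates not normalised; calls are printed but the firefly/Renilla ratio behind them is not deposited; fold cut for lowering reported inconsistently.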 The raw values are shown without normalisation. The numbers tell different reagents against one gene apart. Names joined by + are all predicted targets of the reagent. Not stated in the record: the amount of reagent.

The opening 6 records, to show the layout:
| Gene | reagent | firefly reporter light, replicate 1 | firefly reporter light, replicate 2 | Renilla control light, replicate 1 | Renilla control light, replicate 2 | activity call |
| --- | --- | --- | --- | --- | --- | --- |
| timeout | 1 | 1.06e5 | 1.56e5 | 3.87e5 | 3.40e5 | inactive |
| timeout | 2 | 1.57e5 | 76228 | 1.19e6 | 8.43e5 | inactive |
| timeout | 3 | 1.42e5 | 1.24e5 | 2.32e6 | 2.82e6 | inactive |
| timeout | 4 | 83944 | 76289 | 8.12e5 | 1.42e6 | inactive |
| timeout | 5 | 1.32e5 | 1.08e5 | 2.08e6 | 1.81e6 | inactive |
| timeout | 6 | 7.43e5 | 7.77e5 | 1.01e6 | 6.95e5 | inactive |

Main list, from the first entry:
| Gene | reagent | firefly reporter light, replicate 1 | firefly reporter light, replicate 2 | Renilla control light, replicate 1 | Renilla control light, replicate 2 | activity call |
| --- | --- | --- | --- | --- | --- | --- |
| timeout | 1 | 1.06e5 | 1.56e5 | 3.87e5 | 3.40e5 | inactive |
| timeout | 2 | 1.57e5 | 76228 | 1.19e6 | 8.43e5 | inactive |
| timeout | 3 | 1.42e5 | 1.24e5 | 2.32e6 | 2.82e6 | inactive |
| timeout | 4 | 83944 | 76289 | 8.12e5 | 1.42e6 | inactive |
| timeout | 5 | 1.32e5 | 1.08e5 | 2.08e6 | 1.81e6 | inactive |
| timeout | 6 | 7.43e5 | 7.77e5 | 1.01e6 | 6.95e5 | inactive |
| Ugt307A1 | 1 | 1.81e5 | 1.36e5 | 1.47e6 | 1.31e6 | inactive |
| CG10126 | 1 | 74202 | 1.03e5 | 4.24e5 | 6.79e5 | inactive |
| GXIVsPLA2 | 1 | 29258 | 17086 | 1.95e5 | 2.13e5 | inactive |
| GXIVsPLA2 | 2 | 4.61e5 | 6.89e5 | 1.06e6 | 1.06e6 | inactive |
| CG43335 | 1 | 1.57e5 | 1.55e5 | 2.70e6 | 2.84e6 | inactive |
| CG43335 | 2 | 5.56e5 | 4.65e5 | 1.76e6 | 2.19e6 | inactive |
| CG8461 | 1 | 1.03e5 | 1.23e5 | 5.79e5 | 6.92e5 | inactive |
| Cpr97Eb | 1 | 2.53e5 | 2.44e5 | 3.37e6 | 3.41e6 | inactive |
| CG6908 | 1 | 1.39e5 | 1.62e5 | 2.78e6 | 3.27e6 | inactive |
| CG6908 | 2 | 1.09e6 | 1.10e6 | 9.61e5 | 7.78e5 | inactive |
| CG6701 | 1 | 3.17e5 | 4.07e5 | 9.48e5 | 8.10e5 | inactive |
| Dcr-1 | 1 | 74276 | 73935 | 7.21e5 | 8.59e5 | inactive |
| Dcr-1 | 2 | 2.75e5 | 3.08e5 | 6.48e5 | 6.93e5 | inactive |
| Lar | 1 | 1.46e5 | 1.93e5 | 5.47e5 | 4.99e5 | inactive |
| Lar | 2 | 1.24e6 | 7.03e5 | 2.86e6 | 1.73e6 | inactive |
| Lar | 3 | – | – | – | – | inactive |
| Lipt1 + CG42837 | 1 | 1.15e6 | 7.16e5 | 1.93e6 | 1.13e6 | inactive |
| Gr39b | 1 | 2.18e5 | 2.01e5 | 4.86e5 | 4.21e5 | inactive |
| Gr39b | 2 | 2.86e5 | 3.63e5 | 7.20e5 | 6.53e5 | inactive |
| CG13810 | 1 | 2.00e5 | 2.26e5 | 2.87e6 | 2.58e6 | inactive |
| CG13810 | 2 | 4.64e5 | 9.46e5 | 1.19e6 | 1.62e6 | inactive |
| CG13810 | 3 | 7.44e5 | 5.83e5 | 2.33e6 | 1.35e6 | inactive |
| Lrrk | 1 | 3.85e5 | 4.11e5 | 2.94e6 | 2.76e6 | inactive |
| Lrrk | 2 | 6.21e5 | 5.01e5 | 2.00e6 | 1.77e6 | inactive |
| Lrrk | 3 | 2.59e5 | 2.31e5 | 6.65e5 | 5.64e5 | inactive |
| Lrrk | 4 | – | – | – | – | inactive |
| Lrrk | 5 | – | – | – | – | inactive |
| CG14696 | 1 | 1.21e5 | 1.42e5 | 1.73e6 | 1.72e6 | inactive |
| E2f2 | 1 | 8.37e5 | 7.06e5 | 2.93e6 | 2.07e6 | inactive |
| CG18269 | 1 | 1.04e5 | 1.36e5 | 1.12e6 | 1.06e6 | inactive |
| CG4199 | 1 | 1.22e5 | 93802 | 6.56e5 | 4.04e5 | inactive |
| CG4199 | 2 | 8.94e5 | 7.90e5 | 2.56e6 | 1.74e6 | inactive |
| CG4199 | 3 | 1.08e6 | 7.48e5 | 3.39e6 | 1.30e6 | inactive |
| Bace | 1 | 3.65e5 | 3.05e5 | 2.14e6 | 2.90e6 | inactive |
| Bace | 2 | 8.68e5 | 7.80e5 | 1.44e6 | 1.59e6 | inactive |
| Gad1 | 1 | 7.15e5 | 3.48e5 | 1.46e6 | 1.06e6 | inactive |
| Gad1 | 2 | 2.72e5 | 2.07e5 | 7.39e5 | 5.40e5 | inactive |
| wake | 1 | 1.70e5 | 2.79e5 | 2.43e6 | 2.31e6 | inactive |
| wake | 2 | 1.47e5 | 2.26e5 | 2.41e6 | 2.33e6 | inactive |
| CG31253 + CG31131 | 1 | 1.52e5 | 2.06e5 | 2.51e5 | 3.10e5 | inactive |
| fs(1)M3 | 1 | 1.12e5 | 85662 | 1.02e6 | 7.76e5 | inactive |
| fs(1)M3 | 2 | 5.71e5 | 6.62e5 | 1.36e6 | 1.35e6 | inactive |
| CG6026 | 1 | 1.49e5 | 2.41e5 | 2.12e6 | 3.34e6 | inactive |
| daw | 1 | 8.57e5 | 9.54e5 | 2.66e6 | 1.60e6 | inactive |
| daw | 2 | 9.80e5 | 1.21e6 | 1.03e6 | 1.07e6 | inactive |
| daw | 3 | 1.79e6 | 1.34e6 | 1.67e6 | 1.65e6 | inactive |
| Psn | 1 | 2.88e5 | 3.08e5 | 2.15e6 | 2.84e6 | inactive |
| CG32017 | 1 | 6.65e5 | 6.78e5 | 1.20e6 | 7.84e5 | inactive |
| CG34417 | 1 | 3.76e5 | 4.79e5 | 3.96e6 | 3.94e6 | inactive |
| CG34417 | 2 | 1.14e5 | 1.32e5 | 9.18e5 | 6.66e5 | inactive |
| CG34417 | 3 | 6.70e5 | 8.25e5 | 7.21e5 | 1.06e6 | inactive |
| CG4960 | 1 | 2.03e5 | 1.68e5 | 1.99e6 | 1.87e6 | inactive |
| CG4960 | 2 | 5.87e5 | 5.73e5 | 5.59e5 | 6.43e5 | inactive |
